Measured values: doi:10.1101/2022.02.20.481212
Like-named read-outs stand apart in the source and are kept apart here. These are yes or no findings as the source states them, for the method shown. In cells and extracts the contact can be indirect. Some binding calls cover weakened binding; strength is not graded here. Each block holds one molecule with its values, some of them ahead of it.

By UniProt entry, the sequences of proteins in these tests, tags left out.
UniProt Q9NYV6: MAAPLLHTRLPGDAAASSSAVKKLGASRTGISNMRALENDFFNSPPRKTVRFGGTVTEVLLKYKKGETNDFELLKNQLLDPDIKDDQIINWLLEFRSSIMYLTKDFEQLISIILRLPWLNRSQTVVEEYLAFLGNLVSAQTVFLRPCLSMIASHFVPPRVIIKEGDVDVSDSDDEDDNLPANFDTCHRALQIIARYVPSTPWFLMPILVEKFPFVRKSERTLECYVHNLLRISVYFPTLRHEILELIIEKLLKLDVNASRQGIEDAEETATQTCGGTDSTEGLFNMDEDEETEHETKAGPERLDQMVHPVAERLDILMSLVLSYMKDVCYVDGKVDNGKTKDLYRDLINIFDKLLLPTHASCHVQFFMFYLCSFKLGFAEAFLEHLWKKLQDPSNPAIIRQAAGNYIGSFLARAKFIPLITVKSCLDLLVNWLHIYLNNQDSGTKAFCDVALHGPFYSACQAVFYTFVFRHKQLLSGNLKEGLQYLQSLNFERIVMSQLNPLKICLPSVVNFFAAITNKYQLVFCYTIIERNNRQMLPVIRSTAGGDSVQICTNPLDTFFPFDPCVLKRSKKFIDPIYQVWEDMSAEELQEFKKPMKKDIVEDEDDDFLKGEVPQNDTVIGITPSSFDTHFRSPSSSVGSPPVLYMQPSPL
UniProt P20226: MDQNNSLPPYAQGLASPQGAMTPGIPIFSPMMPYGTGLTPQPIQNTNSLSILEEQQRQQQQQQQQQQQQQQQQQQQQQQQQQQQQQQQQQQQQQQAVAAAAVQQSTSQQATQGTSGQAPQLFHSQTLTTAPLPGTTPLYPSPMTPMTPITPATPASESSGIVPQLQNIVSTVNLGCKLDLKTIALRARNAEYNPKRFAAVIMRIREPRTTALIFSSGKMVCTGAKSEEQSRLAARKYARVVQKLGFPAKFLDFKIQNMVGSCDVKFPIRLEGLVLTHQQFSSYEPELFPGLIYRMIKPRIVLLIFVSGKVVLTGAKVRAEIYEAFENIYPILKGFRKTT
UniProt P17480: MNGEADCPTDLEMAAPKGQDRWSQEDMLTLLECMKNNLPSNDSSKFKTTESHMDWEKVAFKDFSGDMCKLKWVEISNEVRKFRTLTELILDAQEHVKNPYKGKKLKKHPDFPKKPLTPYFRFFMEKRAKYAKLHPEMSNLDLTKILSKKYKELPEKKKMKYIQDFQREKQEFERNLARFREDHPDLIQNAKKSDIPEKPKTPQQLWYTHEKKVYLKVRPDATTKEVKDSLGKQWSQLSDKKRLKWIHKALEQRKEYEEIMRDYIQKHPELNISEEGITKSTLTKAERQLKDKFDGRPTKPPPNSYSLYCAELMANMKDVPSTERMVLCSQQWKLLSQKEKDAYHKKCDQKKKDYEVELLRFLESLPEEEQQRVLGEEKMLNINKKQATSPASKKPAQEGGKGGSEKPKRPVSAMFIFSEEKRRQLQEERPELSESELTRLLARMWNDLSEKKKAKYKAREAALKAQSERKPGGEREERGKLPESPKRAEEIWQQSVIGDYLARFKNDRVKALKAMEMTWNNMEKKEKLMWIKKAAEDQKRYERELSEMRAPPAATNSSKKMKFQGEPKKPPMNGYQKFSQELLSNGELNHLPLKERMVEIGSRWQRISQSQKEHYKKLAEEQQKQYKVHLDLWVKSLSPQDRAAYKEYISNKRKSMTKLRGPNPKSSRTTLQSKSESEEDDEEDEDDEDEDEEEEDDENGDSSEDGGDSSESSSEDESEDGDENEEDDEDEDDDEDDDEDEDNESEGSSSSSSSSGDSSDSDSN
UniProt Q3B726: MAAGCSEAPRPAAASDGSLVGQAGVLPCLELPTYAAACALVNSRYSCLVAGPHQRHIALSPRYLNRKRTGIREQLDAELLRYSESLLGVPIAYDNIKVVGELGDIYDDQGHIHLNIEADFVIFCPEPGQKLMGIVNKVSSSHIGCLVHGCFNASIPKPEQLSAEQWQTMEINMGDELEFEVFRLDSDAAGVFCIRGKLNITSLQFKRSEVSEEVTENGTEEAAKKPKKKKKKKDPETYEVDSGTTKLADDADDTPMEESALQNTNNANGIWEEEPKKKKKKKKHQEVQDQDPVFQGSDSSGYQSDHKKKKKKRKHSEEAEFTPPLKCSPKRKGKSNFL

Tests used:
Test in all cases: co-IP
[1] = target: T1, TFIIB-related factor 1 (human (endogenous in HeLa)) (UniProt Q92994)
T1 sequence: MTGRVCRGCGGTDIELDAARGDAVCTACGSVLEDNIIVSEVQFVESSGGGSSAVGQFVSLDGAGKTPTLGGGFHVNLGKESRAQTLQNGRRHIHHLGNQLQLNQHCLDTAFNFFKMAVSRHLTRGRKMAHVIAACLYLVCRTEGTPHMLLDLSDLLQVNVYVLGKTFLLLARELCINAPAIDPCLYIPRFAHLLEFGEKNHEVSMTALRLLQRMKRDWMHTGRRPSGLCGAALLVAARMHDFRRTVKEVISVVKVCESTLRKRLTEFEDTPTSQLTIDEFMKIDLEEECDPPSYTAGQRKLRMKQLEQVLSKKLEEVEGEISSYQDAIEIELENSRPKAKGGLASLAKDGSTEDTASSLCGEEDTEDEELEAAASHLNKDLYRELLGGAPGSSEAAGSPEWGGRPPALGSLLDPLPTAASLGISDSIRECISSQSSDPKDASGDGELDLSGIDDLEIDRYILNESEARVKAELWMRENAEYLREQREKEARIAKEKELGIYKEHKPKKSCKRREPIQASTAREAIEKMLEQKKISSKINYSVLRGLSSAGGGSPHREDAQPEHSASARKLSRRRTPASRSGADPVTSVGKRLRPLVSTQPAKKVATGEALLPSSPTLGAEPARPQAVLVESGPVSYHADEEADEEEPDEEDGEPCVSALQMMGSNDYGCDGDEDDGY

[2] = target: T1, TFIIB-related factor 1 (human (endogenous in HeLa)); remark: listed apart in the source
[3] = target: T2, TATA box binding protein associated factor, RNA polymerase I subunit B (human (endogenous in HeLa)) (UniProt Q53T94)
T2 sequence: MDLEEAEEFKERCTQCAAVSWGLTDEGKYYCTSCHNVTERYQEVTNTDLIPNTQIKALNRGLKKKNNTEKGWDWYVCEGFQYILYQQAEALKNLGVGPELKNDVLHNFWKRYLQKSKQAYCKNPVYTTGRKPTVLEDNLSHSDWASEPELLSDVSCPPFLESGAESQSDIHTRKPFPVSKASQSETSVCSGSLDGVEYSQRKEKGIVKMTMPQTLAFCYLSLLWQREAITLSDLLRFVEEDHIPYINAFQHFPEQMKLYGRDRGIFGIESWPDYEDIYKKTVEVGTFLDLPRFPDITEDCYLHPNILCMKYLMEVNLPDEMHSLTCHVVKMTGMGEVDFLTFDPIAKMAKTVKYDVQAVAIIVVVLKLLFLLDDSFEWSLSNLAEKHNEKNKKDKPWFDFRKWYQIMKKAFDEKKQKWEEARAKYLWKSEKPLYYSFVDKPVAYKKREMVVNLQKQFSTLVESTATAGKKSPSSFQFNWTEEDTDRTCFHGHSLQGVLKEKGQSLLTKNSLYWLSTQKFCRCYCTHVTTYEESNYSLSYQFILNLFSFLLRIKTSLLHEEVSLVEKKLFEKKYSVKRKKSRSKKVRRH

[4] = target: T3, TFIIIC subunit GTF3C2 (human (endogenous in HeLa)) (UniProt Q8WUA4)
T3 sequence: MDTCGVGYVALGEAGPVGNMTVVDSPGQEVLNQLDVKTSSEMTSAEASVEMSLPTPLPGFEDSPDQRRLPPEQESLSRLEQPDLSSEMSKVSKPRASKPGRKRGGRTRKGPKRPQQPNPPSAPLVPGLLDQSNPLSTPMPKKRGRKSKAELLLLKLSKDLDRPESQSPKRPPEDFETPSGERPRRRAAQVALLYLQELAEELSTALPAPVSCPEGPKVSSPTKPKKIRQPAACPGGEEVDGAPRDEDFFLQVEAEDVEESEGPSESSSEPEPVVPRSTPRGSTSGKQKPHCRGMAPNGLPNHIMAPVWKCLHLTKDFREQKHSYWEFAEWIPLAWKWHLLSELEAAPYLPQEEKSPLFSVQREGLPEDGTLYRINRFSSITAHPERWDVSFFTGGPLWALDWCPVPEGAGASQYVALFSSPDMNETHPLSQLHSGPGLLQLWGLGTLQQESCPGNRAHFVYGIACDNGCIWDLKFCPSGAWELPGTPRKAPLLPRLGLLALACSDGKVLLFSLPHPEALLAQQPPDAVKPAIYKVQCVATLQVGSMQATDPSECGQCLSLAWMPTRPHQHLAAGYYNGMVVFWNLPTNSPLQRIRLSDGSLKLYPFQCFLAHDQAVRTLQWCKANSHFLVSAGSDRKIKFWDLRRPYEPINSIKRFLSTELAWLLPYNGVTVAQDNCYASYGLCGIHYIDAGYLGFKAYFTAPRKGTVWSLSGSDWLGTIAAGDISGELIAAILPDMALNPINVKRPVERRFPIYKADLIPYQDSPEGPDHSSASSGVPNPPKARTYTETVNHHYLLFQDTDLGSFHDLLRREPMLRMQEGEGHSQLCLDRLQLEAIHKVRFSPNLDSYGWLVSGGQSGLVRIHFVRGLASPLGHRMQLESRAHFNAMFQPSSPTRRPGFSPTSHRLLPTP

[5] = target: transcription initiator factor 1A (human (endogenous in HeLa)) (UniProt Q9NYV6)
[6] = target: TATA-binding protein (human (endogenous in HeLa)) (UniProt P20226)
[7] = target: T4, TATA box binding protein associated factor, RNA polymerase I subunit A (human (endogenous in HeLa)) (UniProt Q15573)
T4 sequence: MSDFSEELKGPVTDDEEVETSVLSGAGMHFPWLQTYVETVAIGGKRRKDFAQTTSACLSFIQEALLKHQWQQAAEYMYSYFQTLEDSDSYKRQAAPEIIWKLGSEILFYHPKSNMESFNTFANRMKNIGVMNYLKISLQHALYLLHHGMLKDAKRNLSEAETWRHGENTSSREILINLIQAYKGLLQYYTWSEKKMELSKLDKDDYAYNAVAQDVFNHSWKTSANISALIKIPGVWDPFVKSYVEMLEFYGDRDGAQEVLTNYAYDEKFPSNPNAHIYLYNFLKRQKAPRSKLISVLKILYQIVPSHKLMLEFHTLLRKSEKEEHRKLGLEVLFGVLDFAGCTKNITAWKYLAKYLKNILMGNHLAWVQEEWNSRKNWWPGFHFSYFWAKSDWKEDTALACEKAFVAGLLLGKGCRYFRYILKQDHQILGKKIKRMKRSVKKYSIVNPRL

[8] = target: upstream binding factor (human (endogenous in HeLa)) (UniProt P17480)
[9] = target: DNA-directed RNA polymerase I subunit F (human (endogenous in HeLa)) (UniProt Q3B726)

- binding [2]: binds
B1: TATA box binding protein associated factor, RNA polymerase I subunit B (protein, UniProt Q53T94 1-588)
chain: T2 sequence

- binding [3]: binds
- binding [4]: binds
- binding [5]: binds
- binding [6]: binds
- binding [7]: binds
- binding [8]: binds
- binding [9]: binds
B2: TFIIB-related factor 1 (protein, UniProt Q92994 1-677)
chain: T1 sequence

More lines, now with the values behind:

Molecule: TATA-binding protein (from UniProt P20226 1-339)
- binding [1]: binds

Molecule: DNA-directed RNA polymerase I subunit F (from UniProt Q3B726 1-338)
- binding [1]: binds

Molecule: transcription initiator factor 1A (from UniProt Q9NYV6 1-651)
- binding [1]: binds

B3: TATA box binding protein associated factor, RNA polymerase I subunit A (protein, UniProt Q15573 1-450)
chain: T4 sequence
- binding [2]: binds
